Patent US11813264B2, “PAR1 modulation to alter myelination” (Mayo Foundation for Medical Education and Research, priority 2014, dated 2023)

Tested on: PLP and MBP RNA expression
Test: Myelin gene expression (PLP, MBP RNA) in primary oligodendrocytes, quantitative RT-PCR
Type: cell-based, mouse

## Klk6: Recombinant murine kallikrein-related peptidase 6 expressed using a baculovirus system
PAR1+/+ cells treated with Klk6
  GAPDH RNA expression: 1.4×10^6±4.4×10^4 copies/0.5 μg RNA
PAR1-/- cells treated with Klk6
  GAPDH RNA expression: 1.4×10^6±6.5×10^3 copies/0.5 μg RNA
